Test results as given in the supplement of paper PMC4635364.
The list shows a part of the results. This data set is noisy: repeats of one test often differ as much as different tests do.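 ReNCell VM, a human fetal ventral-midbrain neural progenitor line, was differentiated without mitogens. Blinded raters scored images stained for doublecortin (early neurons) or tyrosine hydroxylase (dopaminergic neurons) against untreated wells (0 = no change). Scores were averaged across repeats and both raters, and compounds averaging 2 or more were selected as hits for retesting.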

Each compound was assayed on ReNCell VM (assay: dopaminergic neuron differentiation score (TH+ cell fraction vs untreated, manual image score) (score (0 to 3)); higher = more TH+ dopaminergic neuron differentiation). Settings: library: Spectrum; 2 uM; 4 weeks; BDNF 10 ng/ml + GDNF 10 ng/ml.
`CCNC(=O)CC[C@H](N)C(=O)O` was tested, and the “dopaminergic neuron differentiation score” value was inactive: 0.
With `COCC1=C(C(=O)OC(C)OC(=O)OC(C)C)N2C(=O)[C@@H](NC(=O)/C(=N\OC)c3csc(N)n3)[C@H]2SC1` (stereo not given in full) the “dopaminergic neuron differentiation score” value was inactive: 0.
With `C#C[C@]1(O)CC[C@H]2[C@@H]3CCC4=CC(=O)CC[C@@H]4[C@H]3CC[C@@]21C` the “dopaminergic neuron differentiation score” value was inactive: 0.
`CC(=O)OCC(=O)[C@@]1(O)[C@H](C)C[C@H]2[C@@H]3CCC4=CC(=O)C=C[C@]4(C)[C@@]3(F)[C@@H](O)C[C@@]21C` was tested, and the “dopaminergic neuron differentiation score” value was inactive: 0.
`COc1ccc2c(c1)OCC(Cc1ccc(OC)c(OC(C)=O)c1)C2=O` (stereo not given) was tested, and the “dopaminergic neuron differentiation score” value was inactive: 0.
In the case of `COc1ccc([C@H]2Oc3cc(OC)cc(OC)c3C[C@H]2O)cc1`, the “dopaminergic neuron differentiation score” value is reported as inactive: 0.
In the case of `COC(=O)[C@H]1[C@H]2C[C@@H]3c4[nH]c5cc(OC)ccc5c4CCN3C[C@H]2C[C@@H](OC(=O)c2cc(OC)c(OC)c(OC)c2)[C@@H]1OC`, the “dopaminergic neuron differentiation score” value is reported as inactive: 0.
For `CCCCCCCCCCCCCCCC(=O)OC[C@H](O)[C@H]1OC(=O)C(O)=C1O`, the “dopaminergic neuron differentiation score” value was inactive: 0.
`CN1C(C(=O)Nc2ccccn2)=C(O)c2sccc2S1(=O)=O` was tested, and the “dopaminergic neuron differentiation score” value was inactive: 0.
`CCCc1cc(=O)[nH]c(=S)[nH]1` was tested, and the “dopaminergic neuron differentiation score” value was inactive: 0.
`O=c1[nH]cc(F)c(=O)[nH]1` was tested, and the “dopaminergic neuron differentiation score” value was inactive: 0.
`COc1ccc2cc1Oc1ccc(cc1)C[C@H]1c3c(cc4c(c3Oc3cc5c(cc3OC)CCN(C)[C@@H]5C2)OCO4)CCN1C` was tested, and the “dopaminergic neuron differentiation score” value was inactive: 0.
In the case of `S=P(N1CC1)(N1CC1)N1CC1`, the “dopaminergic neuron differentiation score” value is reported as inactive: 0.
With `CC(C(=O)O)c1cccc(Oc2ccccc2)c1` (stereo not given) the “dopaminergic neuron differentiation score” value was inactive: 0.
`C[C@]12CCC(=O)C=C1CC[C@@H]1[C@@H]2[C@@H](O)C[C@@]2(C)[C@H]1CC[C@]2(O)C(=O)COP(=O)(O)O` was tested, and the “dopaminergic neuron differentiation score” value was inactive: 0.
